± gives the standard deviation of the averaged measurements. The list shows a part of the results.
Compound: Nc1nc2c(ncn2[C@@H]2O[C@H](COP(=O)(O)OP(=O)(O)OP(=O)(O)O)[C@@H](O)[C@H]2O)c(=O)[nH]1 [guanosine triphosphate]
Assay: NP40-soluble protein abundance relative to vehicle (solubility fold change) (ratio); higher = more soluble protein in presence of GTP
Procedure, shortened: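 Jurkat crude lysate prepared with a Dounce homogeniser was treated at eight concentrations spanning 0.1 to 10 mM, 10 min at room temperature then 3 min at 37 °C. Solubilisation with 0.8% NP40 and benzonase and ultracentrifugation preceded TMT labelling of the supernatant for LC-MS/MS. Fold change against the detergent-processed vehicle was determined per replicate from vsn-normalised intensities, across three independent experiments.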

By UniProt entry, the sequences of proteins in these tests, tags left out. Where a name states a change or a piece, a line headed by the entry shows the natural chain unless it says otherwise.
UniProt P53611: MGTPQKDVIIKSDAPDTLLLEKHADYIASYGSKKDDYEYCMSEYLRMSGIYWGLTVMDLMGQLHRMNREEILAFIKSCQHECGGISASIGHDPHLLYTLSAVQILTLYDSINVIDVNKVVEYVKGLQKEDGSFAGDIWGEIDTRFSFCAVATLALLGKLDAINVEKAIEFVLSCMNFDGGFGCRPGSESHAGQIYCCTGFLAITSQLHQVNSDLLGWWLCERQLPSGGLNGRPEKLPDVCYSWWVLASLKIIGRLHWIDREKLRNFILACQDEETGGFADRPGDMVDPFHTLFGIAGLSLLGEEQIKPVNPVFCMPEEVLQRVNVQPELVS
UniProt P68371, whole entry: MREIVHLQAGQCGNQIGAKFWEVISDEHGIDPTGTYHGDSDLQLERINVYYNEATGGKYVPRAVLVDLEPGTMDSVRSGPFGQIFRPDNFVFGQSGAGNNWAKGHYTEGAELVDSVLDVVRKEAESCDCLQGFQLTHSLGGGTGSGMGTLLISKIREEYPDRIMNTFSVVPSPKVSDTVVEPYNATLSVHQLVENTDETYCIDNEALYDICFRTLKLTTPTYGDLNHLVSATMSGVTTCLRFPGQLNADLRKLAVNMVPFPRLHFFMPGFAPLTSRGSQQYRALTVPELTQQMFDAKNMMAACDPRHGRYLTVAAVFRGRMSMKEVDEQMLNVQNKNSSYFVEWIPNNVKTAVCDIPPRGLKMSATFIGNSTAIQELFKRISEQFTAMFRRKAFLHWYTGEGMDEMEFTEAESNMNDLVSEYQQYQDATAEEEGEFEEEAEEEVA
UniProt P84101: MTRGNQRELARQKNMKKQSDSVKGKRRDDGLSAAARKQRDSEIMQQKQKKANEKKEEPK
UniProt P83436: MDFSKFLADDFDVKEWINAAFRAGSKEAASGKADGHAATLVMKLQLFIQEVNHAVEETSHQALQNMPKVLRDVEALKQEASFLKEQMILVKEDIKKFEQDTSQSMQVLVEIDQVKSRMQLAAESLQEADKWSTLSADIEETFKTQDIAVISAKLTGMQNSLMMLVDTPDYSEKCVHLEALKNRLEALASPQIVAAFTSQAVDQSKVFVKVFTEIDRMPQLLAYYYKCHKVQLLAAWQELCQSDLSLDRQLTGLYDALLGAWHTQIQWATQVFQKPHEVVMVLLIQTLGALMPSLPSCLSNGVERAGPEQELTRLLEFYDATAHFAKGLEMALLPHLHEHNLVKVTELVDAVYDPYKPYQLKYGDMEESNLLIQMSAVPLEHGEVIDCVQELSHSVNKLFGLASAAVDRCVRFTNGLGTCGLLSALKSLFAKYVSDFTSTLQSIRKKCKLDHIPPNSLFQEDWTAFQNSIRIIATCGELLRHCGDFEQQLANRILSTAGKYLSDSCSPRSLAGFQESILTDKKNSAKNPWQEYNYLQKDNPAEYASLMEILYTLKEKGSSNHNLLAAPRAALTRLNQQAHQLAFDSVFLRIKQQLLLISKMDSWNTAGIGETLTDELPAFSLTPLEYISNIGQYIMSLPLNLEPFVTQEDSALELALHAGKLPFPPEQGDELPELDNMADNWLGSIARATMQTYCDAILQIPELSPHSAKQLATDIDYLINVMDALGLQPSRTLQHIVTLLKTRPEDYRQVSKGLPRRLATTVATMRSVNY
UniProt P51659: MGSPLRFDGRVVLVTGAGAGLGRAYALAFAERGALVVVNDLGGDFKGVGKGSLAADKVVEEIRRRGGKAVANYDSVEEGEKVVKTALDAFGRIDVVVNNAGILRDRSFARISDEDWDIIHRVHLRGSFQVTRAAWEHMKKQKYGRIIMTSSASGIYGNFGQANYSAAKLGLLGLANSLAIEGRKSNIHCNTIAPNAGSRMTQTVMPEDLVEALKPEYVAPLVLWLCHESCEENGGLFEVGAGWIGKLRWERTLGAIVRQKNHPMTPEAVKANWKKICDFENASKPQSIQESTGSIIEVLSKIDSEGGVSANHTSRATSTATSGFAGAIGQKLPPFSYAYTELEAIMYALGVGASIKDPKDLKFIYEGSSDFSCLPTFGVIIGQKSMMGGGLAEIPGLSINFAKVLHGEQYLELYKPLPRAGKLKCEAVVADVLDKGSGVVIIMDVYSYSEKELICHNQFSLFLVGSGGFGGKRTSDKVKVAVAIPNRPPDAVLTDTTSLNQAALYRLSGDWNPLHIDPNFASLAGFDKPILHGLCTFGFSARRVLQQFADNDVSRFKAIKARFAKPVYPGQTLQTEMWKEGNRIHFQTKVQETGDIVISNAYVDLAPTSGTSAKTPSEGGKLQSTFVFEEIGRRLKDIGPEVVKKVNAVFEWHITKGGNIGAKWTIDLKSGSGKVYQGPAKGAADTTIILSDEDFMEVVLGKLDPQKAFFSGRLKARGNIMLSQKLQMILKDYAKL

Row | Target | NP40-soluble protein abundance (concentration: 0.1mM) | NP40-soluble protein abundance (concentration: 0.5mM) | NP40-soluble protein abundance (concentration: 1mM) | NP40-soluble protein abundance (concentration: 2mM) | NP40-soluble protein abundance (concentration: 4mM) | NP40-soluble protein abundance (concentration: 6mM) | NP40-soluble protein abundance (concentration: 8mM) | NP40-soluble protein abundance (concentration: 10mM)
1 | RABGGTB (UniProt P53611) | 1.02 ± 0.058 | 0.994 ± 0.035 | 0.911 ± 0.018 | 0.865 ± 0.023 | 0.838 ± 0.039 | 0.89 ± 0.019 | 0.868 ± 0.06 | 0.822 ± 0.078
2 | UniProt P68371 | 0.929 ± 0.11 | 1.03 ± 0.15 | 0.955 ± 0.12 | 0.909 ± 0.11 | 0.881 ± 0.19 | 0.912 ± 0.13 | 0.951 ± 0.14 | 0.933 ± 0.18
3 | METAP1 (UniProt P53582) | 1.09 ± 0.069 | 1.1 ± 0.05 | 1.08 ± 0.099 | 1.12 ± 0.12 | 1.19 ± 0.14 | 1.24 ± 0.12 | 1.25 ± 0.072 | 1.23 ± 0.13
4 | UniProt P84101 and related entries | 1.22 ± 0.17 | 1.1 ± 0.18 | 1.08 ± 0.32 | 0.974 ± 0.31 | 0.978 ± 0.37 | 0.857 ± 0.3 | 0.947 ± 0.4 | 0.898 ± 0.32
5 | UniProt P98155 and related entries | 1.06 ± 0.032 | 1.05 ± 0.052 | 1.12 ± 0.047 | 1.04 ± 0.08 | 0.995 ± 0.071 | 1.01 ± 0.071 | 1.07 ± 0.089 | 1.05 ± 0.031
6 | COG7 (UniProt P83436) | 0.974 ± 0.062 | 0.969 ± 0.022 | 1 ± 0.032 | 1 ± 0.036 | 1.03 ± 0.068 | 1.01 ± 0.06 | 1.02 ± 0.058 | 1.02 ± 0.07
7 | HSD17B4 (UniProt P51659) | 1.02 ± 0.0057 | 1.01 ± 0.026 | 0.9623 ± 0.0073 | 0.947 ± 0.032 | 0.958 ± 0.021 | 0.944 ± 0.028 | 0.93 ± 0.032 | 0.912 ± 0.048

Reference: the supplement of paper PMC6411743
